Measured values: paper PMC8980084
Results are given in words; binding and its absence hold for the method and conditions named. In cells and extracts the contact can be indirect. Some binding calls cover weakened binding; strength is not graded here.

Protein sequences, listed by entry. Tags and fused reporters are not part of them.
UniProt Q96PY5: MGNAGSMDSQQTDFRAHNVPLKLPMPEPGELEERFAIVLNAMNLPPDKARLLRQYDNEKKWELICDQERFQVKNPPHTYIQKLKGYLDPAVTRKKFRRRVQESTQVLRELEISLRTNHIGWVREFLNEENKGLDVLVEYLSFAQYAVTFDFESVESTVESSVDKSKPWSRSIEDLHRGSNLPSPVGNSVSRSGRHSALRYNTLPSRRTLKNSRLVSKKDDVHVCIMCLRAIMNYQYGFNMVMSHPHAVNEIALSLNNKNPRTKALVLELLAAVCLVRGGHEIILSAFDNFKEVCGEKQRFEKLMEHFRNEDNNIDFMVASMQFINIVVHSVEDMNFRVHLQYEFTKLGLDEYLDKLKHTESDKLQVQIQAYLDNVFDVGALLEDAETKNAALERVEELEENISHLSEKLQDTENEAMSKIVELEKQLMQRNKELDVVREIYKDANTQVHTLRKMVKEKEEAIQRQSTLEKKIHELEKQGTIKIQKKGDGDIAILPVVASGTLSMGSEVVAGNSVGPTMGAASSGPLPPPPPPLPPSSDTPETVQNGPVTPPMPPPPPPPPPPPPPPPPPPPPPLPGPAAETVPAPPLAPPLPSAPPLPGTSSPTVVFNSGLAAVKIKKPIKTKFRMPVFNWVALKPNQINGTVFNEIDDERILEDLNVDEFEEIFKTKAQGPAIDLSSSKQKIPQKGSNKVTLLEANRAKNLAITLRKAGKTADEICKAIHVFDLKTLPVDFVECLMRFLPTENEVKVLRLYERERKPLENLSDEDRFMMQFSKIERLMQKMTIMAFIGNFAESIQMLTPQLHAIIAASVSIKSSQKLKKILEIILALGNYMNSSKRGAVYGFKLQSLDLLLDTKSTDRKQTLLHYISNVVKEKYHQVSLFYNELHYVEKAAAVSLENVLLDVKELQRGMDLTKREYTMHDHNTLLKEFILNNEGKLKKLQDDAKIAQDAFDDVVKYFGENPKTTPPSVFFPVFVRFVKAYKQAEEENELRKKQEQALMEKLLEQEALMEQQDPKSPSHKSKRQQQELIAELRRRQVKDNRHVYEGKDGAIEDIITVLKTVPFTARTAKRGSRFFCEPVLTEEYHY
UniProt P61586: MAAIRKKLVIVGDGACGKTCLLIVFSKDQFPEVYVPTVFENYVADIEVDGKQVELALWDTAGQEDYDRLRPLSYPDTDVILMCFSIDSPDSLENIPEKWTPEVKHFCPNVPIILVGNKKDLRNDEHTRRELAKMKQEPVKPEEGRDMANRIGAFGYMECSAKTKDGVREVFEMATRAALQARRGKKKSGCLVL

Target: Formin-like protein 2 (FMNL2) (human) (UniProt Q96PY5)
Assay: co-IP; Dynabeads protein G immunoprecipitation kit (Invitrogen), breast cancer cells; precipitating antibody and cell line not stated; detection by western blotting

- binding: binds
Substance: RhoA (from UniProt P61586 1-193)
